Measured values from PubChem BioAssay AID2517 (National Center for Advancing Translational Sciences (NCATS), 2010).
Among all 350,000 compounds or so, about 1,200 (0.34%) were called active. Inconclusive results, whose numbers are uncertain, are shown with a selection of clear calls. The call rests on the fitted dose curve; in most records, active means well fitted inhibition curve with a large enough effect; inconclusive means small, poorly fitted or top-dose-only effect; inactive means no such curve, though single readings can be large or run the other way. Where the call is inconclusive, the potency comes from a doubtful curve fit.

Amino acid sequences for entries named in this document (tags omitted).
UniProt P27695, whole entry, looked up: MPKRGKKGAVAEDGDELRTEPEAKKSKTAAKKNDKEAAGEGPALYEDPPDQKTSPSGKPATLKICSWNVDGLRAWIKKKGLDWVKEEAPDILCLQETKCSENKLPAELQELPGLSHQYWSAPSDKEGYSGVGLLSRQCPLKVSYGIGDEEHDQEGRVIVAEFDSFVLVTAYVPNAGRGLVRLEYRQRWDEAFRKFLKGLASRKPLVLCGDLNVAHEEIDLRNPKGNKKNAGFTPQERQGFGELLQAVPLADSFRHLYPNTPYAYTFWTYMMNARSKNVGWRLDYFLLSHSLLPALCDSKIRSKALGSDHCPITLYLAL

Each molecule was assayed against DNA repair nuclease/redox regulator APEX1 (Homo sapiens) (UniProt P27695) (assay: qHTS Assay for Inhibitors of the Human Apurinic/apyrimidinic Endonuclease 1 (APE1)). Details: recombinant APE1, TAMRA/BHQ-2 abasic DNA cleavage fluorescence; series mostly up to 65.8 µM.
Method in brief: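 Readout is kinetic fluorescence (ex 525, em 598 nm) from cleavage of 50 nM TAMRA/BHQ-2 THF abasic duplex by 0.75 nM APE1, compound added 15 min beforehand at RT.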
Further: nearly all actives have a fitted effect of over 55% in size.
Potency means the concentration at half of the fitted maximal effect.

Structure (SMILES)	Potency
Cc1cc(C)nc(SCc2nnc(SCC(=O)O)n2-c2ccccc2)n1	inconclusive: 31.6 µM [inhibitor, single point]
CC(=O)Nc1ccc(NC(=O)CSc2ccc(-c3ccco3)nn2)cc1	inconclusive: 31.6 µM [inhibitor, single point]
Cc1nnc(NC(=O)CCSCCC(=O)Nc2nnc(C)s2)s1	inconclusive: 35.5 µM [inhibitor, single point]
Cc1ccc(OCc2n[nH]c(=S)n2N)cc1C	inconclusive: 31.6 µM [inhibitor, partial curve, poor fit]
C=CCSC1=N/C(=C\c2cc(OCC)c(OC(C)=O)c([N+](=O)[O-])c2)C(=O)S1	inconclusive: 0.005 µM [inhibitor, full curve, poor fit]
CCOc1ccccc1-c1nnc2n1N=C(c1cc(OC)cc(OC)c1)CS2	inactive
CC(C)(C)c1ccc(C(=O)NNc2cc(N3CCOCC3)nc(N3CCOCC3)n2)cc1	inconclusive: 0.562 µM [inhibitor, single point]
Cc1ccc(C(=O)NC(C)c2ccc3c(c2)OCO3)s1 (stereo unspecified)	inconclusive: 39.8 µM [inhibitor, single point]
CCCCNC(=O)C1CCN(C/C(C)=C/c2ccccc2)CC1	inconclusive: 0.0112 µM [inhibitor, full curve, poor fit]
O=C(NCc1ccccc1)c1ccc2nccnc2c1	inactive
COc1ccc(NCc2ccc([N+](=O)[O-])s2)c(OC)c1	inconclusive: 28.2 µM [inhibitor, partial curve]
O=C1[C@H]2[C@@H](C(=O)N1c1cc(Cl)cc(Cl)c1)[C@]1(C(=O)Nc3ccccc31)N1CCC[C@@H]21	inconclusive: 12.6 µM [inhibitor, partial curve, poor fit]
CC(C)(O)C(O)COc1c2ccoc2cc2oc(=O)ccc12 (stereo unspecified)	inconclusive: 31.6 µM [inhibitor, partial curve]
COc1ccc(CSc2nnnn2Cc2ccccc2)cc1OC	inactive
Cc1ccc(NC(=O)CN2C(=O)S/C(=C\c3ccc(-c4cccc(C(=O)O)c4C)o3)C2=O)cc1C	inconclusive: 39.8 µM [inhibitor, single point]
COc1cc(/C=N/NC(N)=O)ccc1OCC(=O)Nc1ccc(C)c(C)c1	inactive
O=C(/C=C/c1ccco1)Nc1cccnc1Cl	inconclusive: 28.2 µM [inhibitor, single point]
C=CCc1cc(/C=C/c2nc(O)c([N+](=O)[O-])c(=O)[nH]2)cc(OC)c1O	inconclusive: 22.4 µM [inhibitor, partial curve, poor fit]
O=C(COC(=O)c1ccc2ncsc2c1)NC(=O)NCc1ccccc1	inconclusive: 44.7 µM [inhibitor, single point]
O=C(CSc1nnc2scc(-c3ccccc3)n12)Nc1nsc(-c2ccccc2)n1	inactive
N#C/C(=C\c1ccc(C(=O)O)cc1)c1nc2sc3c(c2c(=O)[nH]1)CCCC3	inconclusive: 28.2 µM [inhibitor, partial curve]

Structure (SMILES)	Potency
COc1cccc(C(=O)Nc2ccc(C(=O)O)cc2)c1	inactive
O=C(Nc1nnc(-c2ccc(Cl)cc2)o1)Nc1ccccc1F	inconclusive: 39.8 µM [inhibitor, single point]
O=C(CSc1nc2ccccc2c(=O)n1-c1ccccc1)NC(=O)CN1CCCC1=O	inconclusive: 15.8 µM [inhibitor, partial curve]
CCOC(=O)CN(C(=O)CSc1nnc(C)n1-c1ccccc1)c1cccc([N+](=O)[O-])c1	inconclusive: 7.94 µM [inhibitor, single point]
O=C(CCN1C(=O)/C(=C\C=C\c2ccccc2)SC1=S)Nc1cccc(C(=O)O)c1	inconclusive: 26.7 µM [inhibitor, single point]
N#Cc1c(NC(=O)CCCC(=O)O)sc2c1CCCCC2	inconclusive: 44.7 µM [inhibitor, single point]
COc1cccc(C(=O)COC(=O)C(C)N2C(=O)c3ccccc3C2=O)c1 (stereo unspecified)	inconclusive: 5.01 µM [inhibitor, partial curve]
COc1cc2cc3c4cc(OC)c(OC)cc4cc[n+]3c(C)c2cc1OC	inconclusive: 5.62 µM [inhibitor, full curve, poor fit]
COc1ccc(O[C@H]2C=C[C@@H](c3ccccc3)O[C@H]2COC(=O)CC/C(C)=N\OC[C@@H](O)COCc2ccco2)cc1	inconclusive: 3.16 µM [inhibitor, single point]
CCCc1[nH][nH]c(=O)c1C(c1ccccc1)C(C#N)C#N (stereo unspecified)	inactive
N=C1C(c2nc3ccccc3s2)=C(O)CN1NC(=O)c1c[nH]c2ccccc12	inconclusive: 15.8 µM [inhibitor, partial curve]
COC(=O)c1cc(=O)n(Cc2ccccc2)c(=NCc2ccccc2)s1	inconclusive: 0.794 µM [inhibitor, full curve]
COc1ccc(-c2nnn(Cc3nc(N)nc(N4CCCCC4)n3)n2)cc1	inconclusive: 39.8 µM [inhibitor, single point]
COc1ccccc1NS(=O)(=O)c1ccc(N/N=C/c2ccccc2OCC(=O)O)c([N+](=O)[O-])c1	inconclusive: 44.7 µM [inhibitor, single point]
CC(C)(C)c1ccc(/C=C/C(=O)NC2=NCCS2)cc1	inconclusive: 0.0089 µM [inhibitor, full curve, poor fit]
O=C(O)CCCCCNC(=O)c1ccccc1Br	inactive
O=C(NCCCO)C(=O)NCCc1ccc(Cl)cc1	inconclusive: 0.891 µM [inhibitor, full curve, poor fit]
O=C(COc1ccccc1)Nc1nnc(-c2ccco2)o1	inconclusive: 0.0447 µM [inhibitor, full curve, poor fit]
Oc1cccc(/C=N/NC(=S)Nc2cccnc2)c1O	inconclusive: 2.51 µM [inhibitor, full curve]
Cc1cc(Sc2nc(N(C)C)nc(N(C)C)n2)nc(Cl)n1	inconclusive: 11.2 µM [inhibitor, partial curve, poor fit]

Filtered by structure, the entries above with a tert-butyl group (2)
Structure (SMILES)	Potency
CC(C)(C)c1ccc(C(=O)NNc2cc(N3CCOCC3)nc(N3CCOCC3)n2)cc1	inconclusive: 0.562 µM [inhibitor, single point]
CC(C)(C)c1ccc(/C=C/C(=O)NC2=NCCS2)cc1	inconclusive: 0.0089 µM [inhibitor, full curve, poor fit]
